{"source": "paper doi:10.1101/701474", "target": "Cyclin B1 (RPE Cyclin B1-Venus+/-:Ruby-MAD2+/- cells) (human (endogenous in RPE1)) (UniProt P14635)", "test": "co-IP", "note": "No constants are given. Whether binding was seen depends on the method and setting. In cells and extracts the contact can be indirect.", "data": [{"substance": "MAD1 E53/56K (RPE1 clones 7D2 and 8B12) (from UniProt Q9Y6D9 1-718)", "values": [{"measurement": "binding", "value": "no binding"}]}]}
